# The other results are listed elsewhere or left out.
# B1: PX14343G-pdi-535-24-535 (Parabacteroides distasonis) (protein)
# chain: LDTVPKDQLAPSTTWQTEADAKGFIVGCYKDLLDGNTLLYLDCGSDIGYNNFPWEGFRPWGDGSLSSSNPGQILYDYKSIRKANTFLENVDKVTFSSDAVKANYVAQAKAIRAYKYFLMNWWYGGVPIISSYSSADEAKVERNTEQEVRDYIAKDLDEALAGIAEAPEARGYIAKGAVLAIKMREALYYGDWQKAKDAAKAIIDLKQYELDPDYTNLFKVSGVDSKEIILADQNIETLDGLGTIGQMYNNVDQGWSSIVPTQNLVDMYEMSDGLTKEESKTYDAKHPFANRDPRMAMTILYPGRDWRGDVLNTLDEKLQDGTVNKNFPTYTDNASKSALTWAKYLDPMDQYGDVWSSGACPIVFRYAEVLLTYAEAANELSGPSDEIYGYLNQIRQRVGMGEVDKAKYGTKDKLRELIRRERTVELAGEGLRRADIVRWQEDGKMLAEKVMNGDLLRVTGTINYGESEPTKRAEITGTAVIETRQFSSRNRYLPIPQTSMDKNPNLKQNPGY
# Columns and labels:
# Assay in all cases: glycan array binding signal (z-score within array); higher = stronger binding
# Conditions in all cases: glycan notation: IUPAC condensed, linker removed
# [1] = molecular target: GlcNAc(b1-2)Gal(b1-3)GalNAc
# Summary of the method: (§1)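 Columns mapping to the same glycan were averaged after glycan names were converted to IUPAC-condensed notation. The data come from 3228 arrays in the Consortium for Functional Glycomics database, limited to those with an available protein sequence. Binding is reported as a within-array Z-score averaged across arrays of one protein sequence and across linkers.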
# [2] = molecular target: GlcNAc(b1-2)Man(a1-3)[GlcNAc(b1-2)Man(a1-6)]Man(b1-4)GlcNAc(b1-4)GlcNAc
# Summary of the method: as §1
# [3] = molecular target: GlcNAc(b1-2)Man(a1-3)[GlcNAc(b1-2)Man(a1-6)]Man(b1-4)GlcNAc(b1-4)[Fuc(a1-6)]GlcNAc
# Summary of the method: as §1
# [4] = molecular target: GlcNAc(b1-2)Man(a1-3)[GlcNAc(b1-4)][GlcNAc(b1-2)Man(a1-6)]Man(b1-4)GlcNAc(b1-4)GlcNAc
# Summary of the method: as §1
# [5] = molecular target: GlcNAc(b1-2)Man(a1-3)[GlcNAc(b1-4)][GlcNAc(b1-2)Man(a1-6)]Man(b1-4)GlcNAc(b1-4)[Fuc(a1-6)]GlcNAc
# Summary of the method: as §1
# [6] = molecular target: GlcNAc(b1-2)[GlcNAc(b1-4)]Man(a1-3)[GlcNAc(b1-2)Man(a1-6)]Man(b1-4)GlcNAc(b1-4)GlcNAc
# Summary of the method: as §1
# [7] = molecular target: GlcNAc(b1-2)[GlcNAc(b1-4)]Man(a1-3)[GlcNAc(b1-4)][GlcNAc(b1-2)Man(a1-6)]Man(b1-4)GlcNAc(b1-4)GlcNAc
# Summary of the method: as §1
# [8] = molecular target: GlcNAc(b1-2)[GlcNAc(b1-4)]Man(a1-3)[GlcNAc(b1-4)][GlcNAc(b1-2)[GlcNAc(b1-6)]Man(a1-6)]Man(b1-4)GlcNAc(b1-4)GlcNAc
# Summary of the method: as §1
# [9] = molecular target: GlcNAc(b1-2)[GlcNAc(b1-4)]Man(a1-3)[GlcNAc(b1-4)][GlcNAc(b1-2)[GlcNAc(b1-6)]Man(a1-6)]Man(b1-4)GlcNAc(b1-4)[Fuc(a1-6)]GlcNAc
# Summary of the method: as §1
# [10] = molecular target: GlcNAc(b1-2)[GlcNAc(b1-6)]Man(a1-6)[GlcNAc(b1-2)Man(a1-3)]Man(b1-4)GlcNAc(b1-4)GlcNAc
# Summary of the method: as §1
# [11] = molecular target: GlcNAc(b1-2)[GlcNAc(b1-6)]Man(a1-6)[GlcNAc(b1-2)Man(a1-3)]Man(b1-4)GlcNAc(b1-4)[Fuc(a1-6)]GlcNAc
# Summary of the method: as §1
# [12] = molecular target: GlcNAc(b1-2)[GlcNAc(b1-6)]Man(a1-6)[GlcNAc(b1-4)][GlcNAc(b1-2)Man(a1-3)]Man(b1-4)GlcNAc(b1-4)GlcNAc
# Summary of the method: as §1
# GlcNAc(b1-3)Fuc = molecular target: GlcNAc(b1-3)Fuc
# Summary of the method: as §1
# GlcNAc(b1-3)Gal = molecular target: GlcNAc(b1-3)Gal
# Summary of the method: as §1
# [13] = molecular target: GlcNAc(b1-3)Gal(b1-3)GalNAc
# Summary of the method: as §1
# GlcNAc(b1-3)Gal(b1-4)Glc = molecular target: GlcNAc(b1-3)Gal(b1-4)Glc
# Summary of the method: as §1
# [14] = molecular target: GlcNAc(b1-3)Gal(b1-4)GlcNAc
# Summary of the method: as §1
# [15] = molecular target: GlcNAc(b1-3)Gal(b1-4)GlcNAc(b1-2)Man(a1-3)[GlcNAc(b1-3)Gal(b1-4)GlcNAc(b1-2)Man(a1-6)]Man(b1-4)GlcNAc(b1-4)GlcNAc
# Summary of the method: as §1
# [16] = molecular target: GlcNAc(b1-3)Gal(b1-4)GlcNAc(b1-2)Man(a1-3)[GlcNAc(b1-3)Gal(b1-4)GlcNAc(b1-2)Man(a1-6)]Man(b1-4)GlcNAc(b1-4)[Fuc(a1-6)]GlcNAc
# Summary of the method: as §1
# [17] = molecular target: GlcNAc(b1-3)Gal(b1-4)GlcNAc(b1-2)[GlcNAc(b1-3)Gal(b1-4)GlcNAc(b1-6)]Man(a1-6)[GlcNAc(b1-3)Gal(b1-4)GlcNAc(b1-2)Man(a1-3)]Man(b1-4)GlcNAc(b1-4)GlcNAc
# Summary of the method: as §1
# [18] = molecular target: GlcNAc(b1-3)Gal(b1-4)GlcNAc(b1-3)Gal(b1-4)GlcNAc
# Summary of the method: as §1
# [19] = molecular target: GlcNAc(b1-3)Gal(b1-4)GlcNAc(b1-3)Gal(b1-4)GlcNAc(b1-2)Man(a1-3)[GlcNAc(b1-3)Gal(b1-4)GlcNAc(b1-3)Gal(b1-4)GlcNAc(b1-2)Man(a1-6)]Man(b1-4)GlcNAc(b1-4)GlcNAc
# Summary of the method: as §1
# [20] = molecular target: GlcNAc(b1-3)Gal(b1-4)GlcNAc(b1-3)Gal(b1-4)GlcNAc(b1-2)Man(a1-3)[GlcNAc(b1-3)Gal(b1-4)GlcNAc(b1-3)Gal(b1-4)GlcNAc(b1-2)Man(a1-6)]Man(b1-4)GlcNAc(b1-4)[Fuc(a1-6)]GlcNAc
# Summary of the method: as §1
# [21] = molecular target: GlcNAc(b1-3)Gal(b1-4)GlcNAc(b1-3)Gal(b1-4)GlcNAc(b1-2)[GlcNAc(b1-3)Gal(b1-4)GlcNAc(b1-3)Gal(b1-4)GlcNAc(b1-6)]Man(a1-6)[GlcNAc(b1-3)Gal(b1-4)GlcNAc(b1-3)Gal(b1-4)GlcNAc(b1-2)Man(a1-3)]Man(b1-4)GlcNAc(b1-4)[Fuc(a1-6)]GlcNAc
# Summary of the method: as §1
# [22] = molecular target: GlcNAc(b1-3)Gal(b1-4)GlcNAc(b1-3)Gal(b1-4)GlcNAc(b1-3)Gal(b1-4)GlcNAc(b1-2)Man(a1-3)[GlcNAc(b1-3)Gal(b1-4)GlcNAc(b1-3)Gal(b1-4)GlcNAc(b1-3)Gal(b1-4)GlcNAc(b1-2)Man(a1-6)]Man(b1-4)GlcNAc(b1-4)GlcNAc
# Summary of the method: as §1
# [23] = molecular target: GlcNAc(b1-3)Gal(b1-4)GlcNAc(b1-3)Gal(b1-4)GlcNAc(b1-3)Gal(b1-4)GlcNAc(b1-2)Man(a1-3)[GlcNAc(b1-3)Gal(b1-4)GlcNAc(b1-3)Gal(b1-4)GlcNAc(b1-3)Gal(b1-4)GlcNAc(b1-2)Man(a1-6)]Man(b1-4)GlcNAc(b1-4)[Fuc(a1-6)]GlcNAc
# Summary of the method: as §1
# [24] = molecular target: GlcNAc(b1-3)Gal(b1-4)GlcNAc(b1-3)Gal(b1-4)GlcNAc(b1-3)Gal(b1-4)GlcNAc(b1-2)[GlcNAc(b1-3)Gal(b1-4)GlcNAc(b1-3)Gal(b1-4)GlcNAc(b1-3)Gal(b1-4)GlcNAc(b1-6)]Man(a1-6)[GlcNAc(b1-3)Gal(b1-4)GlcNAc(b1-3)Gal(b1-4)GlcNAc(b1-3)Gal(b1-4)GlcNAc(b1-2)Man(a1-3)]Man(b1-4)GlcNAc(b1-4)[Fuc(a1-6)]GlcNAc
# Summary of the method: as §1
# [25] = molecular target: GlcNAc(b1-3)Gal(b1-4)GlcNAc(b1-3)Gal(b1-4)GlcNAc(b1-3)Gal(b1-4)GlcNAc(b1-3)Gal(b1-4)GlcNAc(b1-2)Man(a1-3)[GlcNAc(b1-3)Gal(b1-4)GlcNAc(b1-3)Gal(b1-4)GlcNAc(b1-3)Gal(b1-4)GlcNAc(b1-3)Gal(b1-4)GlcNAc(b1-2)Man(a1-6)]Man(b1-4)GlcNAc(b1-4)GlcNAc
# Summary of the method: as §1
# [26] = molecular target: GlcNAc(b1-3)Gal(b1-4)GlcNAc(b1-3)Gal(b1-4)GlcNAc(b1-3)Gal(b1-4)GlcNAc(b1-3)Gal(b1-4)GlcNAc(b1-2)Man(a1-3)[GlcNAc(b1-3)Gal(b1-4)GlcNAc(b1-3)Gal(b1-4)GlcNAc(b1-3)Gal(b1-4)GlcNAc(b1-3)Gal(b1-4)GlcNAc(b1-2)Man(a1-6)]Man(b1-4)GlcNAc(b1-4)[Fuc(a1-6)]GlcNAc
# Summary of the method: as §1
# [27] = molecular target: GlcNAc(b1-3)Gal(b1-4)GlcNAc(b1-3)Gal(b1-4)GlcNAc(b1-3)Gal(b1-4)GlcNAc(b1-3)Gal(b1-4)GlcNAc(b1-2)[GlcNAc(b1-3)Gal(b1-4)GlcNAc(b1-3)Gal(b1-4)GlcNAc(b1-3)Gal(b1-4)GlcNAc(b1-3)Gal(b1-4)GlcNAc(b1-6)]Man(a1-6)[GlcNAc(b1-3)Gal(b1-4)GlcNAc(b1-3)Gal(b1-4)GlcNAc(b1-3)Gal(b1-4)GlcNAc(b1-3)Gal(b1-4)GlcNAc(b1-2)Man(a1-3)]Man(b1-4)GlcNAc(b1-4)[Fuc(a1-6)]GlcNAc
# Summary of the method: as §1
# [28] = molecular target: GlcNAc(b1-3)Gal(b1-4)GlcNAc(b1-3)Gal(b1-4)GlcNAc(b1-3)GalNAc
# Summary of the method: as §1
# [29] = molecular target: GlcNAc(b1-3)Gal(b1-4)GlcNAc(b1-3)GalNAc
# Summary of the method: as §1
# [30] = molecular target: GlcNAc(b1-3)Gal(b1-4)GlcNAc(b1-3)[GlcNAc(b1-3)Gal(b1-4)GlcNAc(b1-3)]GalNAc
# Summary of the method: as §1
# [31] = molecular target: GlcNAc(b1-3)Gal(b1-4)GlcNAc(b1-6)[Gal(b1-3)]GalNAc
# Summary of the method: as §1
# [32] = molecular target: GlcNAc(b1-3)Gal(b1-4)GlcNAc(b1-6)[GlcNAc(b1-3)Gal(b1-3)]GalNAc
# Summary of the method: as §1
# [33] = molecular target: GlcNAc(b1-3)Gal(b1-4)GlcNAc(b1-6)[GlcNAc(b1-3)]Gal(b1-4)GlcNAc
# Summary of the method: as §1
# GlcNAc(b1-3)GalNAc = molecular target: GlcNAc(b1-3)GalNAc
# Summary of the method: as §1
binder,measurement,setting,value
B1,glycan array binding signal (z-score),[1],-0.469
same,glycan array binding signal (z-score),[2],-0.317
same,glycan array binding signal (z-score),[3],-0.344
same,glycan array binding signal (z-score),[4],0.596
same,glycan array binding signal (z-score),[5],-0.585
same,glycan array binding signal (z-score),[6],-0.781
same,glycan array binding signal (z-score),[7],-0.642
same,glycan array binding signal (z-score),[8],-1.19
same,glycan array binding signal (z-score),[9],-0.715
same,glycan array binding signal (z-score),[10],0.316
same,glycan array binding signal (z-score),[11],-0.446
same,glycan array binding signal (z-score),[12],-0.748
same,glycan array binding signal (z-score),GlcNAc(b1-3)Fuc,0.719
same,glycan array binding signal (z-score),GlcNAc(b1-3)Gal,1.1
same,glycan array binding signal (z-score),[13],0.376
same,glycan array binding signal (z-score),GlcNAc(b1-3)Gal(b1-4)Glc,-0.128
same,glycan array binding signal (z-score),[14],-0.842
same,glycan array binding signal (z-score),[15],1.18
same,glycan array binding signal (z-score),[16],-0.327
same,glycan array binding signal (z-score),[17],2.37
same,glycan array binding signal (z-score),[18],-0.554
same,glycan array binding signal (z-score),[19],1.13
same,glycan array binding signal (z-score),[20],0.286
same,glycan array binding signal (z-score),[21],-0.028
same,glycan array binding signal (z-score),[22],-0.133
same,glycan array binding signal (z-score),[23],0.497
same,glycan array binding signal (z-score),[24],0.865
same,glycan array binding signal (z-score),[25],0.208
same,glycan array binding signal (z-score),[26],0.685
same,glycan array binding signal (z-score),[27],0.346
same,glycan array binding signal (z-score),[28],-0.867
same,glycan array binding signal (z-score),[29],-0.147
same,glycan array binding signal (z-score),[30],0.31
same,glycan array binding signal (z-score),[31],-1.23
same,glycan array binding signal (z-score),[32],0.869
same,glycan array binding signal (z-score),[33],0.049
same,glycan array binding signal (z-score),GlcNAc(b1-3)GalNAc,-0.28

# 2 records picked at random from those above, as already listed:
binder,measurement,setting,value
B1,glycan array binding signal (z-score),[15],1.18
same,glycan array binding signal (z-score),[17],2.37

# — the supplement of paper PMC8728848
